Source: PubChem BioAssay AID1487 (National Center for Advancing Translational Sciences (NCATS), 2009)
This is one part of the list. Further columns of the screen follow, without active or inactive calls. The list favours compounds with an active or inconclusive main result. Potencies come from curve fits of mixed quality, noted in brackets.

Test: qHTS Assay for Modulators of Lamin A Splicing
Conditions: HeLa LMNA splicing GFP/RFP minigene ratio, 48 h
Procedure, shortened: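 Read-out is the ratio of GFP to DsRed2 object intensity, acquired by 488 nm laser-scanning cytometry on HeLa lamin A-EGFP minigene reporter cells. Compound incubation 48 hrs at 37 °C in Opti-MEM with 2% FBS; DMSO 0.5% final.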

[1] = measured here: RFP viability control channel
[2] = measured here: GFP splicing reporter channel

Structure (SMILES) | AC50 [1] | AC50 [2]
CCCN(CC(=O)Nc1cc(C)on1)S(=O)(=O)c1cccc(C(F)(F)F)c1 | 35.5 µM [rising, partial curve, poor fit] | 
COc1cccc(/C=N/Nc2snc(SC)c2C#N)c1O |  | 2.51 µM [rising, full curve]
CCc1ccccc1N1C(=O)CN(S(=O)(=O)CC)CC1(C)C(=O)NC1CCCCC1 (centres undefined) | 35.5 µM [falling, partial curve, poor fit] | 35.5 µM [falling, partial curve]
O=[N+]([O-])c1cc(C=Nc2ccc3ccccc3c2)ccc1Br | 11.2 µM [rising, single point] | 
O=C(N1CCN(c2ccccn2)CC1)N1c2ccccc2Sc2ccccc21 | 0.891 µM [rising, full curve] | 25.1 µM [falling, single point]
NC(=O)c1ccc([N+](=O)[O-])cc1Cl |  | 35.5 µM [falling, single point]
Clc1ccccc1OCCn1cnc2ccccc21 | 22.4 µM [rising, partial curve] | 8.91 µM [rising, partial curve, poor fit]
CCOC(=O)N1CCC(NC(=O)CCc2nc(-c3ccc(C)cc3)no2)CC1 | 10 µM [rising, partial curve] | 
Cc1ccc(NC(=O)Cc2nn(C)c(=O)c3ccccc23)cc1F | 5.01 µM [rising, full curve] | 7.94 µM [rising, partial curve, poor fit]
CC(=O)Nc1ccc(S(=O)(=O)Nc2ccc3c(c2)OCCO3)cc1 | 1.26 µM [falling, full curve, poor fit] | 0.0447 µM [falling, full curve]
C=CCCc1ccc(C#N)c(SCc2c(C(=O)OCC)c3cc(OC(C)=O)c(Br)cc3n2C)n1 | 6.31 µM [rising, full curve, poor fit] | 
ClC(Br)=C(n1cnc2ccccc21)n1cnc2ccccc21 | 14.1 µM [rising, single point] | 3.98 µM [rising, single point]
O=C(CN(C(=O)c1csnn1)c1cccc2ccccc12)NC1CCCC1 |  | 1.58 µM [rising, partial curve]
C#CCn1c(=NC(=O)c2ccc(S(=O)(=O)N3CCCc4ccccc43)cc2)sc2cc(S(N)(=O)=O)ccc21 | 0.708 µM [falling, full curve] | 
CCn1c2ccccc2c2cc(NC(=O)c3cccc(OC)c3OC)ccc21 | 20 µM [rising, partial curve, poor fit] | 
Nc1nc(Cl)c(C=O)c(N2CCCCC2)n1 | 0.1 µM [falling, full curve, poor fit] | 
CCOc1ccc(C(=O)NCc2ccccc2)cc1Br | 11.2 µM [rising, single point] | 
CCN(CC)c1ccc(/C=C(/C#N)C(=O)NCc2ccccc2)o1 | 0.00501 µM [falling, full curve, poor fit] | 0.00447 µM [falling, full curve, poor fit]
C[C@H]1Cc2c(COc3ccccc3)nc3c(c2CO1)CN(S(=O)(=O)c1ccc(Cl)c2nonc12)CC3 |  | 1.41 µM [rising, partial curve]

Reprinted at random: 3 records from the list.
Structure (SMILES) | AC50 [1] | AC50 [2]
CCn1c2ccccc2c2cc(NC(=O)c3cccc(OC)c3OC)ccc21 | 20 µM [rising, partial curve, poor fit] | 
Nc1nc(Cl)c(C=O)c(N2CCCCC2)n1 | 0.1 µM [falling, full curve, poor fit] | 
O=C(N1CCN(c2ccccn2)CC1)N1c2ccccc2Sc2ccccc21 | 0.891 µM [rising, full curve] | 25.1 µM [falling, single point]

More structures follow.

Structure (SMILES) | AC50 [1] | AC50 [2]
O=C(N/N=C/c1ccc(N2CCOCC2)s1)c1ccccc1Cl |  | 0.0224 µM [falling, full curve, poor fit]
Nc1nc(-c2ccccc2)c(N=Nc2ccccc2Cl)s1 | 12.6 µM [rising, partial curve, poor fit] | 20 µM [rising, single point]
COc1ccc(-c2nn(-c3ccccc3)cc2/C=N/Nc2ccccn2)cc1OC | 22.4 µM [rising, single point] | 35.5 µM [rising, single point]
O=C1CCC(C(=O)OCC(=O)N2N=C3/C(=C/c4ccccc4)CCCC3C2c2ccccc2)N1 (centres undefined) | 15.8 µM [rising, single point] | 
O=C(CCCSc1nc2ccccc2[nH]1)Nc1nnc(-c2ccccc2)o1 |  | 12.6 µM [falling, single point]
Cc1c(C(=O)Nc2ccc(Cc3ccncc3)cc2)cccc1[N+](=O)[O-] | 25.1 µM [rising, single point] | 15.8 µM [rising, single point]
COCCCNC(=S)N1CCCN(c2nc3cc(C)c(C)cc3cc2C#N)CC1 | 31.6 µM [rising, single point] | 
Cc1cc(C)n2nc(SCc3nnc(SCc4ccccc4C)s3)nc2n1 | 11.2 µM [rising, single point] | 
CCc1n[nH]c(=S)n1/N=C/c1c[nH]c2ccc(Br)cc12 |  | 0.00316 µM [falling, full curve, poor fit]
CN1CCN(c2nc(-c3ccc(Br)cc3)nnc2-c2ccccc2)CC1 |  | 20 µM [falling, partial curve, poor fit]
CCOc1ccccc1C(=O)Nc1nnc(CC)s1 | 35.5 µM [rising, single point] | 
Cc1ccc2nc(NC(=O)COC(=O)c3ccc(Br)o3)sc2c1 | 2.82 µM [falling, partial curve] | 
CNC(=O)/C(C#N)=C/c1c(F)cccc1Cl | 11.2 µM [rising, partial curve, poor fit] | 
CSCCC(NS(=O)(=O)c1ccccc1F)C(=O)OCc1ccccc1Cl (centres undefined) |  | 5.62 µM [rising, partial curve]
O=C(NCC(c1cccs1)N1CCOCC1)c1ccc(Br)o1 (centres undefined) | 15.8 µM [rising, single point] | 
COCCCNC(=O)c1cccn2c(=O)c3cc4ccccc4cc3nc12 | 6.31 µM [falling, full curve] | 4.47 µM [falling, full curve]
COc1ccc(NC(=O)C2CSC3c4ccccc4C(=O)N23)cc1 (centres undefined) | 2.24 µM [falling, full curve, poor fit] | 
CCOc1ccccc1NC(=O)CSc1nc2cccnc2n1C | 11.2 µM [rising, single point] | 10 µM [rising, partial curve]
